Sequences of proteins named here, by UniProt entry; tags and fusion partners are left off. A change or cut given only in a name is not applied to a line headed by its entry.
UniProt Q9UBE0: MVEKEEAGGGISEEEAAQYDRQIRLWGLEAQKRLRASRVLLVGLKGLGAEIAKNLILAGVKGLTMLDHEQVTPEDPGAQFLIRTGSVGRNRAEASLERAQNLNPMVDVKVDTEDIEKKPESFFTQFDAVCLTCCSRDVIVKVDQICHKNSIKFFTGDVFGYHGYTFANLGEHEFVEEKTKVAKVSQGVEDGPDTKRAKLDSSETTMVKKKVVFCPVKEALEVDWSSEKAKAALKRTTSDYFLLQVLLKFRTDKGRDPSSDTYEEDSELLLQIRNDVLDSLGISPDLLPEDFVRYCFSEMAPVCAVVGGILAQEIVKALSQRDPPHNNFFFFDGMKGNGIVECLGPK

According to publication PMC12137981 (Acta Pharmaceutica Sinica. B, 2025):

Biological target: SUMOylation activating enzyme subunit 1 (SAE1) (Homo sapiens, UniProt Q9UBE0)
Experiment: biochemical

Q: For `CN[C@H]1CCc2cc(OC)c(OC)c(OC)c2-c2ccc(OC)c(=O)cc21` [colcemid], which Kd is on record?
A: 70.5 µM
